Assay results from the supplement of paper PMC10849652.
This is one part of the list.

The chains behind the UniProt entries cited, without tags or fusion partners. Where a name states a change or a piece, a line headed by the entry shows the natural chain unless it says otherwise.
UniProt P78559: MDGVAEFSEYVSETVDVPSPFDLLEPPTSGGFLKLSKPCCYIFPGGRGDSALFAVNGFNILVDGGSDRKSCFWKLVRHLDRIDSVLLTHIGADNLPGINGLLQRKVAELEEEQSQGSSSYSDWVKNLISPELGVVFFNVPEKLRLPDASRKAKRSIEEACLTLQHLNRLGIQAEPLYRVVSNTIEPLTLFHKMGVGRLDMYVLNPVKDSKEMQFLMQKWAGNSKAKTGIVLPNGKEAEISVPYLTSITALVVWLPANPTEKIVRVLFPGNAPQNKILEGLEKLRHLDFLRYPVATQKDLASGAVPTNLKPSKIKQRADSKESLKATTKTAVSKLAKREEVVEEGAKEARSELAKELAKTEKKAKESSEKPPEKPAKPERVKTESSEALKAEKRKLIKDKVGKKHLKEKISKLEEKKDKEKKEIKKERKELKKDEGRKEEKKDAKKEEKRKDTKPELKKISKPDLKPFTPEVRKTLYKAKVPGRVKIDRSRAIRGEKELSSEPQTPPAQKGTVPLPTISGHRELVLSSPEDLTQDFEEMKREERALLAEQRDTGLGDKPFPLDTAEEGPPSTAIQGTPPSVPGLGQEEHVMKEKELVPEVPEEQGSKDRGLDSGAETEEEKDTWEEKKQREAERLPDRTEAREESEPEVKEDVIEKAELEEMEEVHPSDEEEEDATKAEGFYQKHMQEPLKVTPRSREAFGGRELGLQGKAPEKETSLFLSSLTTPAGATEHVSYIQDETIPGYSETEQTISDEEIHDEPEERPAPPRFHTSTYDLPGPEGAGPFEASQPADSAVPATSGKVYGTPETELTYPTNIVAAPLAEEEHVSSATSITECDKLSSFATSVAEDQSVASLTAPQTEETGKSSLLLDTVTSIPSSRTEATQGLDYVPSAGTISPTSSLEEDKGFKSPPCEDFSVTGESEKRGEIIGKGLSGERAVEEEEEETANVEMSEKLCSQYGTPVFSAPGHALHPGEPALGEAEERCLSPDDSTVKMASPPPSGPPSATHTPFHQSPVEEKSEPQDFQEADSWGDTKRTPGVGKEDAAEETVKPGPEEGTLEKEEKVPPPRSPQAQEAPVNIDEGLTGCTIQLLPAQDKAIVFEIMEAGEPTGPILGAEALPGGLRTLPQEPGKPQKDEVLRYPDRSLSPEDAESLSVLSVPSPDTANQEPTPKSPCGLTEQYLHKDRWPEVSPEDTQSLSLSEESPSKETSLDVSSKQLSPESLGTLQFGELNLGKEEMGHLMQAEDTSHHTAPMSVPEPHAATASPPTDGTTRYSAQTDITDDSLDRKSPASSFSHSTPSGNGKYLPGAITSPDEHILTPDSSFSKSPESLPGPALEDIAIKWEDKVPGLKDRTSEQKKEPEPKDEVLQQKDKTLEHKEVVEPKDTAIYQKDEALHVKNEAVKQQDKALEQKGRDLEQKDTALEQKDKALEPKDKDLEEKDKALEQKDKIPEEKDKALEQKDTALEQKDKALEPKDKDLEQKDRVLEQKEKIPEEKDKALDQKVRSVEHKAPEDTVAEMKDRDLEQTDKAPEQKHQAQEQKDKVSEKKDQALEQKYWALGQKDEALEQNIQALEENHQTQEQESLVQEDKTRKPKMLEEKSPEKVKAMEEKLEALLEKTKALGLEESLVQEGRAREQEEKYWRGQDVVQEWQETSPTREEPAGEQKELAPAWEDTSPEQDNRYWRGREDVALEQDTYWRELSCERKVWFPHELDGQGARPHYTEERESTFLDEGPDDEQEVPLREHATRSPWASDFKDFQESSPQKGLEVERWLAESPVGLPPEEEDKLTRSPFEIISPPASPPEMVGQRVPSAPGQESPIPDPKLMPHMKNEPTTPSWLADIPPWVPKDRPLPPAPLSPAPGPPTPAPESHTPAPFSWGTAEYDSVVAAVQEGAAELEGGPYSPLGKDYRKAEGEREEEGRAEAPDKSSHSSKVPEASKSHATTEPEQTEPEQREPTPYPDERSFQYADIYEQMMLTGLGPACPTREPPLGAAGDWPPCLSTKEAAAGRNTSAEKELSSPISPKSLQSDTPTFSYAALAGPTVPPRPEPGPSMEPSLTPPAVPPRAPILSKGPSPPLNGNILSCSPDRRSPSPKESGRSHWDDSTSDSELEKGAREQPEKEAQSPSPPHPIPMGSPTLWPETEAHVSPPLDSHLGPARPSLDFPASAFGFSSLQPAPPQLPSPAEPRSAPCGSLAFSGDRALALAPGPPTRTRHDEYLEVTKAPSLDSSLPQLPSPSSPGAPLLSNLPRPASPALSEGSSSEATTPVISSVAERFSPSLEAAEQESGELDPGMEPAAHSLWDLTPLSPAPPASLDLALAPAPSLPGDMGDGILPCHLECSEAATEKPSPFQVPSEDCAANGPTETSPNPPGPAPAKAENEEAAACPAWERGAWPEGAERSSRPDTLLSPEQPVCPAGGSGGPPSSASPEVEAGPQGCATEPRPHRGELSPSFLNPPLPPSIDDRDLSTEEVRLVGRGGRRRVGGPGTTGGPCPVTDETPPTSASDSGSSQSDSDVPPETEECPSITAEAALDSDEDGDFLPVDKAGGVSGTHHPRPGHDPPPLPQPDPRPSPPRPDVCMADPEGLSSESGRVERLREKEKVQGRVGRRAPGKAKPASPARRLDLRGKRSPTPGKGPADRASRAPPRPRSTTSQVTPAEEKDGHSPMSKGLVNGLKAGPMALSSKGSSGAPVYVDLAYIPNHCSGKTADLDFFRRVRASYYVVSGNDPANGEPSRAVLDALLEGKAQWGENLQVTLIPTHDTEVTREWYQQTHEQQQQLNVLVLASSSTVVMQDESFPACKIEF
UniProt Q6ZN28: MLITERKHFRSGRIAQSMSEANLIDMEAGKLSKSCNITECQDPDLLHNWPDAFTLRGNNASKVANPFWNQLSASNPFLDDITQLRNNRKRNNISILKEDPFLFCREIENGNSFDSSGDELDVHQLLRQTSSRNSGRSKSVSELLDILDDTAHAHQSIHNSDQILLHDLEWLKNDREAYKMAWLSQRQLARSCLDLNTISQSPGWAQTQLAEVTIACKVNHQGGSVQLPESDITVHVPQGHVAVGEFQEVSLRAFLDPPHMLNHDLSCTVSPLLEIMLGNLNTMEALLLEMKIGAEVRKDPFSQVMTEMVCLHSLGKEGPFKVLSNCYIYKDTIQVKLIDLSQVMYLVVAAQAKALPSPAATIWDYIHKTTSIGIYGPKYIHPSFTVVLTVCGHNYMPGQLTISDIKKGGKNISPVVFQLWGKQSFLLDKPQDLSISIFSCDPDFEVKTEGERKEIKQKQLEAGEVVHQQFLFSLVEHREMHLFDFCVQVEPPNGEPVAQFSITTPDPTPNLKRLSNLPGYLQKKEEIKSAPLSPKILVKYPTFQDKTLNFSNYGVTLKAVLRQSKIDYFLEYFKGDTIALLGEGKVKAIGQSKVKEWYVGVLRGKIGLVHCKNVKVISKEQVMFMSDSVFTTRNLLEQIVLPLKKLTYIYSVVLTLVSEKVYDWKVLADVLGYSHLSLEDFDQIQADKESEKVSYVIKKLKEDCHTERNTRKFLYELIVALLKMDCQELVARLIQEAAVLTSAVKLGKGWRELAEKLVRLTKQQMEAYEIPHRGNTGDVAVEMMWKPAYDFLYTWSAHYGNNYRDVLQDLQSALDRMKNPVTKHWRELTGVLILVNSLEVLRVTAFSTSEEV
UniProt Q9UK45: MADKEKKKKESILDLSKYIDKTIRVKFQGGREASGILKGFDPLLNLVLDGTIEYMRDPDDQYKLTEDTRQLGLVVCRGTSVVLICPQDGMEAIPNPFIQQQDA
UniProt Q15691: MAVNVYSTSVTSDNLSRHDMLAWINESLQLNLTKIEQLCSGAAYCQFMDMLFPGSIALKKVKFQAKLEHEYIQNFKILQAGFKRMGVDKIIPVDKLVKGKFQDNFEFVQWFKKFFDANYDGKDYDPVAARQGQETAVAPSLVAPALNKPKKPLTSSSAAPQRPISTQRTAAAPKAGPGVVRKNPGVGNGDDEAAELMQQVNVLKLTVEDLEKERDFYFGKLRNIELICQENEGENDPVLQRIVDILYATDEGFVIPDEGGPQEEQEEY
UniProt P62310: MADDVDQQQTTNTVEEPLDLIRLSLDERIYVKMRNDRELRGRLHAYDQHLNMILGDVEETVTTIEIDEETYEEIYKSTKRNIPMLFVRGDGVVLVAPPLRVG
UniProt Q9Y5V3: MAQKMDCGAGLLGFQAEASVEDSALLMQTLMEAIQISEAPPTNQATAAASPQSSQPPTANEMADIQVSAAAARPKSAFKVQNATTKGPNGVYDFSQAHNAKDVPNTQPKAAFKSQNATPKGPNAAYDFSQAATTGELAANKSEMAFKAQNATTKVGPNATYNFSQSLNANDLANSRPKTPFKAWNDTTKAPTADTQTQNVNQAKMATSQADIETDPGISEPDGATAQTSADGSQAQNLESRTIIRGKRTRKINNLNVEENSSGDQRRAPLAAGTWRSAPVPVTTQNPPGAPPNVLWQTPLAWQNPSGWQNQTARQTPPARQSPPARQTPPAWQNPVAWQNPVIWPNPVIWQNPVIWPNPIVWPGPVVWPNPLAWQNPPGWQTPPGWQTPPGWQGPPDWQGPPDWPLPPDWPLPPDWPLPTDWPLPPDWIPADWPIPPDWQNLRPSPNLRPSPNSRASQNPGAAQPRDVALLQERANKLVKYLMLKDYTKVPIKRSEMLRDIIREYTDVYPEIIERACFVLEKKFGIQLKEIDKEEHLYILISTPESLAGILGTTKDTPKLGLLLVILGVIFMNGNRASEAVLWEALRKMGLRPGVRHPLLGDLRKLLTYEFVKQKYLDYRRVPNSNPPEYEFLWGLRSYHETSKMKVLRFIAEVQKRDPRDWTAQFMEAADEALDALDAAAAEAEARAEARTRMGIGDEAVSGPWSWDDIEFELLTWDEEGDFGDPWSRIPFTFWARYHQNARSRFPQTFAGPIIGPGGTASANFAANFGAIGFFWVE
UniProt Q8N2S1: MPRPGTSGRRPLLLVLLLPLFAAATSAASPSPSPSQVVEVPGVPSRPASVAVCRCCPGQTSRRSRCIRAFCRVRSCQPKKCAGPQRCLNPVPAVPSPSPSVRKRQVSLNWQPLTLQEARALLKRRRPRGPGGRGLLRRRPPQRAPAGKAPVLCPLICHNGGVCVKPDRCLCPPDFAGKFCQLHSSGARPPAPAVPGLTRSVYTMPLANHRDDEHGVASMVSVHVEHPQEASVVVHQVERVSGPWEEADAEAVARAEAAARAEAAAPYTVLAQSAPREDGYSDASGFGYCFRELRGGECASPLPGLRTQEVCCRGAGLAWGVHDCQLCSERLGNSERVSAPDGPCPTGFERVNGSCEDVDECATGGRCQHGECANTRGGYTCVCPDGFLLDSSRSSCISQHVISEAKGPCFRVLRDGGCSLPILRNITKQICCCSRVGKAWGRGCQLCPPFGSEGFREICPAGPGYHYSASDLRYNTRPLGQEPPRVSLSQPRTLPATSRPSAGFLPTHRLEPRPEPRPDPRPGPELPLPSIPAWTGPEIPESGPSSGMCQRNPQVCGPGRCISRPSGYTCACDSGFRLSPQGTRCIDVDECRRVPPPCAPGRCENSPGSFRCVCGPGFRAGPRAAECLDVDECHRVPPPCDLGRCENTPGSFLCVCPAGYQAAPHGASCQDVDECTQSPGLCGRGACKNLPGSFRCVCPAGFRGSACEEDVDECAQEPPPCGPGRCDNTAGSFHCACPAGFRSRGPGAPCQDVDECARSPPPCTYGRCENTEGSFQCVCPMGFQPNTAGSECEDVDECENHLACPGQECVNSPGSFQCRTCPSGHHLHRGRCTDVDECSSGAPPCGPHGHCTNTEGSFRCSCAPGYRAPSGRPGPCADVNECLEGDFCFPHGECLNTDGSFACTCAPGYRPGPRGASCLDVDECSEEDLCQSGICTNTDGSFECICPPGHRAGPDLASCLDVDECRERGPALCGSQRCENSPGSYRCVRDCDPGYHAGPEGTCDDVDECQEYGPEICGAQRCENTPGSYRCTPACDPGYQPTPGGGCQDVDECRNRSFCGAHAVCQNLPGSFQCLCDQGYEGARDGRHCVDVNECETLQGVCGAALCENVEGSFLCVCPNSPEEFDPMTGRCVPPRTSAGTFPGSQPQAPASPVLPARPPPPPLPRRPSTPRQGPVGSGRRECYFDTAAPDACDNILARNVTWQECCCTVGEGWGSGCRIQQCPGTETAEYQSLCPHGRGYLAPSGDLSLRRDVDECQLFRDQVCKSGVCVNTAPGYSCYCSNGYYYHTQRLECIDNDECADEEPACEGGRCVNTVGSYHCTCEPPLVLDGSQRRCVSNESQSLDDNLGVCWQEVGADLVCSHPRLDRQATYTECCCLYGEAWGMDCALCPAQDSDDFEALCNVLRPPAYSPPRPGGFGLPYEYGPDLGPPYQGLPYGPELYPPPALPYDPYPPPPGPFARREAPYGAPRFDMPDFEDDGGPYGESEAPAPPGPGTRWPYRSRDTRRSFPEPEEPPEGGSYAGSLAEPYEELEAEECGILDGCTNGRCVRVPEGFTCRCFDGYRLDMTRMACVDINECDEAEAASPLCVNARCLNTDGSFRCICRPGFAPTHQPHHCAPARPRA

Experiments:
Assay in all cases: log2 fold change, soluble protein after heating vs DMSO (PISA); higher = thermal stabilisation; K562 cells, 10 uM, 30 min; active = over 0.2 and 3.5 SD of the protein, either way, in both replicates (recomputed)
[1] = compound: C#Cc1cccc(Nc2ncnc3cc(OCCOC)c(OCCOC)cc23)c1 [erlotinib]
In short: (§1)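 K562 cells (2×10^6 cells/mL) were treated with 10 μM compound for 30 min, and aliquots were heated for 3 min over 48°C-58°C. Pooled aliquots were extracted in PBS with 0.5% NP-40 at 4°C, and the supernatant after 21,000xg for 90 min was measured by TMTpro 16plex LC-MS/MS with channel sums equalised. Reported thermal stability, relative to control samples and from duplicates, is a log2 fold change.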

[2] = compound: C/C(=N\NC(=O)C1=CC(=CC=C1)S(=O)(=O)N2CCOCC2)/C3=C(C=CC(=C3)Cl)O
In short: as §1

[3] = compound: C1=CC(=C(C=C1Cl)C2=NC3=NC=CN=C3C(=N2)NC4=CC=NC=C4)F
In short: as §1

[4] = compound: C1=CC(=CC=C1C2=NC3=C(N2)C=C(C=C3)C(=O)N)OC4=CC=C(C=C4)Cl
In short: as §1

[5] = compound: C1=CC2=C(C=CC(=C2)/C=C\3/C(=O)NC(=NCC4=CC=CS4)S3)N=C1
In short: as §1

[6] = compound: C1=CC2=NC=CN=C2C=C1/C=C/3\C(=O)NC(=O)S3
In short: as §1

[7] = compound: C1=CC=C(C=C1)C2=NC(=C(N2)C3=CC=NC=C3)C4=CC(=C(C=C4)Cl)O
In short: as §1

[8] = compound: C1=CC=C2C(=C1)C3=NNC4=CC=CC(=C43)C2=O
In short: as §1

[9] = compound: C1CCN(C1)C(=O)NC2=CC=CC(=C2)NC3=NC=C(C(=N3)NCCC4=CN=CN4)Br
In short: as §1

[10] = compound: C1CN(CCC1(CC2=CC=C(C=C2)Cl)N)C3=NC=NC4=C3C=CN4
In short: as §1

Measured: log2 fold change

MAP1A isoform 2 (UniProt P78559)
inactive: [1] -0.054 | [2] -0.096 | [3] -0.171 | [4] 0.035 | [5] -0.012 | [6] -0.025 | [7] -0.01 | [8] 0.051 | [9] 0.018 | [10] -0.078

MACO1 (UniProt Q8N5G2)
inactive: [1] -0.064 | [2] 0.003 | [3] -0.038 | [4] 0.051 | [5] -0.022 | [6] -0.107 | [7] -0.008 | [8] 0.006 | [9] -0.076 | [10] -0.062

MACC1 (UniProt Q6ZN28)
inactive: [1] -0.02 | [2] 0.051 | [3] 0.028 | [4] 0.092 | [5] 0.063 | [6] 0.064 | [7] 0.008 | [8] -0.149 | [9] -0.085 | [10] 0.179

MAP2K2 (UniProt P36507)
inactive: [1] 0.021 | [2] -0.005 | [3] 0.05 | [4] -0.001 | [5] 0.054 | [6] -0.005 | [7] -0.058 | [8] -0.029 | [9] -0.003 | [10] 0.016

LSM7 (UniProt Q9UK45)
inactive: [1] 0.026 | [2] 0 | [3] 0.062 | [4] -0.032 | [5] 0.068 | [6] 0.076 | [7] 0.01 | [8] -0.042 | [9] 0.017 | [10] -0.013

MAP3K20 (UniProt Q9NYL2)
inactive: [1] 0.014 | [2] -0.013 | [3] -0.009 | [4] 0.043 | [5] -0.009 | [6] 0.038 | [7] -0.011 | [8] -0.106 | [9] -0.046 | [10] -0.036

MAPRE1 (UniProt Q15691)
inactive: [1] -0.022 | [2] 0.053 | [3] 0.05 | [4] -0.011 | [5] 0.001 | [6] 0.037 | [7] 0.012 | [8] 0.036 | [9] 0 | [10] 0.031

3 neighbouring entries already listed:
LSM7 (UniProt Q9UK45)
inactive: [1] 0.026 | [2] 0 | [3] 0.062 | [4] -0.032 | [5] 0.068 | [6] 0.076 | [7] 0.01 | [8] -0.042 | [9] 0.017 | [10] -0.013

MAP3K20 (UniProt Q9NYL2)
inactive: [1] 0.014 | [2] -0.013 | [3] -0.009 | [4] 0.043 | [5] -0.009 | [6] 0.038 | [7] -0.011 | [8] -0.106 | [9] -0.046 | [10] -0.036

MAPRE1 (UniProt Q15691)
inactive: [1] -0.022 | [2] 0.053 | [3] 0.05 | [4] -0.011 | [5] 0.001 | [6] 0.037 | [7] 0.012 | [8] 0.036 | [9] 0 | [10] 0.031

(continued)

LSM3 (UniProt P62310)
inactive: [1] 0.065 | [2] -0.018 | [3] 0.081 | [4] -0.036 | [5] -0.013 | [6] 0.013 | [7] 0.132 | [8] -0.023 | [9] 0.004 | [10] 0.019

MAPRE2 (UniProt Q15555)
inactive: [1] 0.129 | [2] 0.176 | [3] -0.344 | [4] -0.03 | [5] -0.208 | [6] 0.016 | [7] 0.165 | [8] 0.089 | [9] -0.11 | [10] 0.061

MANF (UniProt P55145)
inactive: [1] -0.006 | [2] -0.022 | [3] 0.032 | [4] -0.001 | [5] -0.025 | [6] 0.047 | [7] -0.023 | [8] -0.018 | [9] 0.024 | [10] -0.001

MACF1 (UniProt H3BQK9)
inactive: [1] -0.064 | [2] 0.069 | [3] -0.079 | [4] -0.019 | [5] 0.038 | [6] 0.059 | [7] -0.063 | [8] -0.053 | [9] 0.008 | [10] -0.079

MAP2K1 (UniProt Q02750)
inactive: [1] -0.012 | [2] 0.001 | [3] 0.037 | [4] -0.001 | [5] 0.074 | [6] 0.014 | [7] -0.028 | [8] -0.005 | [9] -0.002 | [10] -0.003

MAGED1 isoform 2 (UniProt Q9Y5V3)
inactive: [1] 0.024 | [2] 0.044 | [3] -0.311 | [4] -0.059 | [5] -0.064 | [8] -0.012

LTBP4 (UniProt Q8N2S1)
inactive: [1] 0.03 | [2] 0.048 | [3] 0.023 | [4] -0.079 | [5] 0.015 | [8] -0.049 | [9] -0.028 | [10] 0.086
